# The supplement of paper PMC11438910
# This is one part of the list. Most of these values are background signal.
# Tests used:
# Experiment in all cases: fluorescence intensity of antibody binding to polysaccharide-coupled beads; higher = stronger binding
# [1] = biological target: pneumococcal polysaccharide Pn33B
# [2] = biological target: pneumococcal polysaccharide Pn33C
# [3] = biological target: pneumococcal polysaccharide Pn33D
# [4] = biological target: pneumococcal polysaccharide Pn33F
# [5] = biological target: pneumococcal polysaccharide Pn34
# [6] = biological target: pneumococcal polysaccharide Pn35A
# [7] = biological target: pneumococcal polysaccharide Pn35B
# [8] = biological target: pneumococcal polysaccharide Pn35C
# [9] = biological target: pneumococcal polysaccharide Pn35F
# [10] = biological target: pneumococcal polysaccharide Pn36
# [11] = biological target: pneumococcal polysaccharide Pn37
# [12] = biological target: pneumococcal polysaccharide Pn38
# [13] = antibody concentration 2.8593 ng/mL
# [14] = antibody concentration 15.2894 ng/mL
# [15] = antibody concentration 81.7561 ng/mL
# [16] = antibody concentration 437.17 ng/mL
# [17] = antibody concentration 2337.65 ng/mL
# [18] = antibody concentration 12500 ng/mL
# [19] = antibody concentration 0.1 ng/mL
# [20] = antibody concentration 0.534724 ng/mL
binder,measurement,setting,value
4-80.4 (protein) chain 1: QVQLQESGPGLVKPSETLSLTCAVSGGSFSSYWWSWIRQSPGKGLEWIGEISGNSGSTNYNPSLKSRVTISKDASKNQFSLKLSSVTAADTAVYYCARYKEYWGQGVLVTVSS chain 2: DVVMTQSPLSLLITPGQPASISCRSSQSLVHSNGNTYLSWYQQKPGQPPRRLLYEVSNRDSGVPDRFSGSGAGTDFTLKISRVEAEDVGVYYCGQGTHLPYSFGQGTKVEIK,fluorescence intensity,[1]; [13],18.2 MFI
same,fluorescence intensity,[1]; [14],18.5 MFI
same,fluorescence intensity,[1]; [15],17.2 MFI
same,fluorescence intensity,[1]; [16],18 MFI
same,fluorescence intensity,[1]; [17],19 MFI
same,fluorescence intensity,[1]; [18],19.5 MFI
same,fluorescence intensity,[2]; [19],18.2 MFI
same,fluorescence intensity,[2]; [20],19.5 MFI
same,fluorescence intensity,[2]; [13],21.2 MFI
same,fluorescence intensity,[2]; [14],20 MFI
same,fluorescence intensity,[2]; [15],18 MFI
same,fluorescence intensity,[2]; [16],18.5 MFI
same,fluorescence intensity,[2]; [17],20.5 MFI
same,fluorescence intensity,[2]; [18],32 MFI
same,fluorescence intensity,[3]; [19],16.8 MFI
same,fluorescence intensity,[3]; [20],17 MFI
same,fluorescence intensity,[3]; [13],17 MFI
same,fluorescence intensity,[3]; [14],15.8 MFI
same,fluorescence intensity,[3]; [15],17.5 MFI
same,fluorescence intensity,[3]; [16],17.5 MFI
same,fluorescence intensity,[3]; [17],15.5 MFI
same,fluorescence intensity,[3]; [18],21.5 MFI
same,fluorescence intensity,[4]; [19],11.5 MFI
same,fluorescence intensity,[4]; [20],13.5 MFI
same,fluorescence intensity,[4]; [13],12.8 MFI
same,fluorescence intensity,[4]; [14],13.5 MFI
same,fluorescence intensity,[4]; [15],13.8 MFI
same,fluorescence intensity,[4]; [16],13.2 MFI
same,fluorescence intensity,[4]; [17],19 MFI
same,fluorescence intensity,[4]; [18],58.5 MFI
same,fluorescence intensity,[5]; [19],12.5 MFI
same,fluorescence intensity,[5]; [20],14.2 MFI
same,fluorescence intensity,[5]; [13],13 MFI
same,fluorescence intensity,[5]; [14],15 MFI
same,fluorescence intensity,[5]; [15],14 MFI
same,fluorescence intensity,[5]; [16],15.8 MFI
same,fluorescence intensity,[5]; [17],15 MFI
same,fluorescence intensity,[5]; [18],18 MFI
same,fluorescence intensity,[6]; [19],16.8 MFI
same,fluorescence intensity,[6]; [20],16 MFI
same,fluorescence intensity,[6]; [13],16.5 MFI
same,fluorescence intensity,[6]; [14],17.5 MFI
same,fluorescence intensity,[6]; [15],16.8 MFI
same,fluorescence intensity,[6]; [16],17 MFI
same,fluorescence intensity,[6]; [17],19 MFI
same,fluorescence intensity,[6]; [18],42.8 MFI
same,fluorescence intensity,[7]; [19],17 MFI
same,fluorescence intensity,[7]; [20],17.5 MFI
same,fluorescence intensity,[7]; [13],17 MFI
same,fluorescence intensity,[7]; [14],16.5 MFI
same,fluorescence intensity,[7]; [15],18.5 MFI
same,fluorescence intensity,[7]; [16],20.5 MFI
same,fluorescence intensity,[7]; [17],21.5 MFI
same,fluorescence intensity,[7]; [18],32.5 MFI
same,fluorescence intensity,[8]; [19],20 MFI
same,fluorescence intensity,[8]; [20],20 MFI
same,fluorescence intensity,[8]; [13],20.5 MFI
same,fluorescence intensity,[8]; [14],19 MFI
same,fluorescence intensity,[8]; [15],20.5 MFI
same,fluorescence intensity,[8]; [16],19 MFI
same,fluorescence intensity,[8]; [17],21.5 MFI
same,fluorescence intensity,[8]; [18],23 MFI
same,fluorescence intensity,[9]; [19],21 MFI
same,fluorescence intensity,[9]; [20],19 MFI
same,fluorescence intensity,[9]; [13],21 MFI
same,fluorescence intensity,[9]; [14],21 MFI
same,fluorescence intensity,[9]; [15],19.5 MFI
same,fluorescence intensity,[9]; [16],18.5 MFI
same,fluorescence intensity,[9]; [17],19.8 MFI
same,fluorescence intensity,[9]; [18],19.5 MFI
same,fluorescence intensity,[10]; [19],15 MFI
same,fluorescence intensity,[10]; [20],15 MFI
same,fluorescence intensity,[10]; [13],14 MFI
same,fluorescence intensity,[10]; [14],15.2 MFI
same,fluorescence intensity,[10]; [15],15 MFI
same,fluorescence intensity,[10]; [16],15 MFI
same,fluorescence intensity,[10]; [17],18.5 MFI
same,fluorescence intensity,[10]; [18],38 MFI
same,fluorescence intensity,[11]; [19],24.5 MFI
same,fluorescence intensity,[11]; [20],26 MFI
same,fluorescence intensity,[11]; [13],25.5 MFI
same,fluorescence intensity,[11]; [14],24.5 MFI
same,fluorescence intensity,[11]; [15],25.5 MFI
same,fluorescence intensity,[11]; [16],26.5 MFI
same,fluorescence intensity,[11]; [17],33 MFI
same,fluorescence intensity,[11]; [18],128 MFI
same,fluorescence intensity,[12]; [19],25.2 MFI
same,fluorescence intensity,[12]; [20],25 MFI
same,fluorescence intensity,[12]; [13],25.2 MFI
same,fluorescence intensity,[12]; [14],24.8 MFI

# Looked up one by one from above:
binder,measurement,setting,value
4-80.4 (protein) chain 1: QVQLQESGPGLVKPSETLSLTCAVSGGSFSSYWWSWIRQSPGKGLEWIGEISGNSGSTNYNPSLKSRVTISKDASKNQFSLKLSSVTAADTAVYYCARYKEYWGQGVLVTVSS chain 2: DVVMTQSPLSLLITPGQPASISCRSSQSLVHSNGNTYLSWYQQKPGQPPRRLLYEVSNRDSGVPDRFSGSGAGTDFTLKISRVEAEDVGVYYCGQGTHLPYSFGQGTKVEIK,fluorescence intensity,[1]; [14],18.5 MFI
same,fluorescence intensity,[7]; [14],16.5 MFI
same,fluorescence intensity,[4]; [15],13.8 MFI
same,fluorescence intensity,[6]; [18],42.8 MFI
